# Measured values reported in patent publication US20220403391.
# Construct, isoform or probe ends are uncertain for at least one entry. Where cells or extracts were used, other partners may take part. Weaker means in comparison with the reference protein, sequence or condition of that experiment.
# Tested on: CD3 (T-cell receptor CD3 complex) (Homo sapiens)
# Experiment: flow cytometry
# Settings: dose-dependent on Jurkat, signal below anti-CD3 monomer, Ramos binding strongly reduced, 37 C, protein on the cell surface, protein details: endogenous on Jurkat cells (ATCC TIB-152), label: 5'-biotin-TEG
# [1] = 2'-F RNA in A10 part, triazole click linkage between A10 3' end and DNA 5' end
# [2] = 2'-F RNA, triazole click linkage between A10 3' end and partner 5' end
sequence,measurement,setting,value
GGGAGGACGAUGCGGAUCAGCCAUGUUUACGUCACUCCUTACCGCGGGGATTGGCTCCGGGCCTGGCGTCGTAATCTGA [A10xCELTIC_19s],binding result,[1],binds more weakly
GGGAGGACGAUGCGGAUCAGCCAUGUUUACGUCACUCCUTTTCCGGGTGGGGGTTTGGCACCGGGCCTGGCGCAGGGATTCG [A10xCELTIC_1s],binding result,[1],binds more weakly
GGGAGGACGAUGCGGAUCAGCCAUGUUUACGUCACUCCUUAUAGACUUUAAUGUCUCAUUUUCGCAGCGAUUCUUGUUUAUUUAACAUA [A10xARACD3-3700006],binding result,[2],binds more weakly
GGGAGGACGAUGCGGAUCAGCCAUGUUUACGUCACUCCUUCUAAGCAAUAUUGUUUGCUUUUGCAGCGAUUCUGUUUCGAUAUAUUA [A10xARACD3-0010209],binding result,[2],binds more weakly
